PubChem BioAssay AID602196 – INSERM, 2012
The deposit covers about 23,000 reagents; below is an unselected part. Over the whole deposit, 455 (2%) were called active. 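Active includes both protection and sensitisation; some change values fall well beyond the stated -50 to +50 range.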 Entries without a mark were called inactive. The numbers tell different reagents against one gene apart. Further read-outs or replicates are left out here. Not stated in the record: the amount of reagent.

Aim: 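Genes whose knock-down alters cisplatin killing of lung cancer cells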
Cell system: human A549 lung cancer cells
Knock-down reagent: siRNA pair against human genes
Duration: 48 h transfection before cisplatin; time from cisplatin to read-out not stated
Conditions: cisplatin at a dose killing half of control-siRNA cells; exact dose and duration not given
Measurement: 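Cisplatin cell death as a shift from the 50% death seen with control siRNA; siRNAs toxic or growth-blocking alone scored 0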
Reading the numbers: two-siRNA summed score (-2 to +2): higher = both siRNAs protect from cisplatin killing; -2 means both sensitise
Hit rule: 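siRNAs harmful alone (LDH or WST-1) get 0; others get +1 for less and -1 for more cisplatin killing; genes are active when the two siRNAs give the same sign, summing to ±2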
Calls: active = both siRNAs shift cisplatin killing the same way; inactive = no consistent shift, or siRNA harmful alone

For ATP7B, what was measured?
two-siRNA summed score (-2 to +2): 0

For CARM1, what was measured?
two-siRNA summed score (-2 to +2): 0

With ASGR2, what does the deposit list?
two-siRNA summed score (-2 to +2): -1

Which result is listed for GPR141?
two-siRNA summed score (-2 to +2): 0

For AP2A2, how do the results read?
two-siRNA summed score (-2 to +2): 1

What did the screen give for CCDC38?
two-siRNA summed score (-2 to +2): 0

With FOXD4L3 #1, what was measured?
two-siRNA summed score (-2 to +2): 0

For FOXD4L3 #2, what does the deposit list?
two-siRNA summed score (-2 to +2): 0

With ARHGAP18, what was measured?
two-siRNA summed score (-2 to +2): 0

How did the screen score PRODH?
two-siRNA summed score (-2 to +2): 0

Which result is listed for ZFYVE27?
two-siRNA summed score (-2 to +2): 0

With LOC401585, how do the results read?
two-siRNA summed score (-2 to +2): 0

Which result is listed for LOC400761?
two-siRNA summed score (-2 to +2): 0

For LOC441927, what was measured?
two-siRNA summed score (-2 to +2): -1

What is on record for FRG2?
two-siRNA summed score (-2 to +2): 1

With DOCK3, what was measured?
two-siRNA summed score (-2 to +2): 0

With LOC388401, what does the deposit list?
two-siRNA summed score (-2 to +2): 0

For RHOD, how do the results read?
two-siRNA summed score (-2 to +2): 0

With ZNF189, how do the results read?
two-siRNA summed score (-2 to +2): 0

What is on record for LOC399737?
two-siRNA summed score (-2 to +2): 1

With LOC392525, what does the deposit list?
two-siRNA summed score (-2 to +2): 1

What is on record for LOC387710?
two-siRNA summed score (-2 to +2): 1

For RGS12, what was measured?
two-siRNA summed score (-2 to +2): 0

How did the screen score PPM1N?
two-siRNA summed score (-2 to +2): 0

With DHX37, how do the results read?
two-siRNA summed score (-2 to +2): 0

With IL15, what does the deposit list?
two-siRNA summed score (-2 to +2): -1

What is on record for TMEM266?
two-siRNA summed score (-2 to +2): 1

For LOC285590, how do the results read?
two-siRNA summed score (-2 to +2): 1

How did the screen score DSG2?
two-siRNA summed score (-2 to +2): 1

For DEFA3, what was measured?
two-siRNA summed score (-2 to +2): 0

For TJP2, what does the deposit list?
two-siRNA summed score (-2 to +2): 0

As entered above.
Entry for LOC400761 in “two-siRNA summed score (-2 to +2)”: 0
Value of DOCK3 under “two-siRNA summed score (-2 to +2)”: 0
